# In all, about 360,000 compounds went through this assay and about 9,100 (2.5%) were called active. Inconclusive means that the source gave no clear call. Such entries were picked first, then a sample of the others. Rule as the data show it: active = max response below about -50%; inconclusive = no clear call, values can overlap the other calls; inactive = above that. A structure can be active in one record and inactive in another.
# Chains of the proteins cited; added tags and fusions are not shown.
# UniProt P35462, whole entry, looked up: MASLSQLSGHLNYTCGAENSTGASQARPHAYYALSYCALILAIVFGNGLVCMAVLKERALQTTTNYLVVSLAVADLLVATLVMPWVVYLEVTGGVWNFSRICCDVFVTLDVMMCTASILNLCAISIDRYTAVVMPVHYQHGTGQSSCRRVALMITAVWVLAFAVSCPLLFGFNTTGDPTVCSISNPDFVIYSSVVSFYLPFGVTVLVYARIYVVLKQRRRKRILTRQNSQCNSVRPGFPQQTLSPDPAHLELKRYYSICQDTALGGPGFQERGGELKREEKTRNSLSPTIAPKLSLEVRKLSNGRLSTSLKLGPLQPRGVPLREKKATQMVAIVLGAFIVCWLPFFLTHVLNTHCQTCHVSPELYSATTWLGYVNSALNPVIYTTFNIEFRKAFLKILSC
# Biological target: D(3) dopamine receptor (Homo sapiens) (UniProt P35462)
# Assay: qHTS of D3 Dopamine Receptor Antagonist: qHTS
# Conditions: D3R cells, DiscoveRx beta-arrestin luminescence, antagonist mode; hits give low values
# Outline: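 Cells expressing the human receptor were seeded at 1500 cells/well, incubated overnight at 37 degrees C in 5% CO2, then exposed to library compounds with dopamine controls for 90 minutes at 37 degrees C before luminescent detection.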
# % is scaled to controls: 0 for no effect and ±100 for the full control effect.
row,Structure (SMILES),"max response, negative = inhibition"
1,CC1CN(C(=O)CCC(=O)NCc2cccnc2)c2ccccc2O1 (centres undefined),inactive: -17.6%
2,O=C(O)/C=C/C(=O)N1CCN(c2ccccc2F)CC1,active: -70.2%
3,CCOC(=O)CC(c1ccc(N)cc1)n1c(C)ccc1C (centres undefined),inconclusive: -34.4%
4,CCC1Nc2ncnc(N3CCCCC3)c2N(Cc2ccc(OC)cc2)C1=O (centres undefined),active: -63.7%
5,Clc1ccc2nc(CN3CCCCC3)cn2c1,inconclusive: -42.5%
6,Cn1c(NC(=O)c2ccccc2)nc2ccccc21,inconclusive: -38%
7,O=C(O)CSc1ncnc2nc[nH]c12,inactive: -11.8%
8,Nc1cccc(C(=O)OCC(=O)Nc2cccc3c2C(=O)c2ccccc2C3=O)c1,inactive: 35%
9,O=S(=O)(Nc1cccc2ncccc12)c1cccs1,active: -68.6%
10,Cc1cc(C)c(C(=O)COC(=O)Cn2cnnn2)cc1C,inconclusive: -40.4%
11,Cc1ccc(NC(=O)c2ncn(CCCN(C)CCc3ccccn3)n2)cc1C,inactive: -18.4%
12,COc1cc(NC(=S)N2CCN(c3ccccn3)CC2)cc(OC)c1OC,inconclusive: -39.1%
13,Cc1cccc(NC(=S)NCCN(C2CCCCC2)C2CCCC2)c1,active: -65.7%
14,S=c1[nH]nc(-c2ccc3ccccc3n2)n1-c1ccccc1,inconclusive: -49.8%
15,Cc1cc2oc(C(=O)NCc3ccncc3)c(C)c2cc1C,inactive: 16.8%
16,O=C(CSc1nc(-c2ccccc2)c(-c2ccccc2)[nH]1)NCc1ccco1,inconclusive: -37%
17,CC(=O)c1cccc(S(=O)(=O)N2CCC(C(=O)OC3CCOC3=O)CC2)c1 (centres undefined),inconclusive: -34.4%
18,CCN1C(=O)CC(SC2CC(=O)N(CC)C2=O)C1=O (centres undefined),inactive: -9.24%
19,CCCOC1CCCN(C(=O)c2ccc(OC)c(OC3CCN(C(C)C)CC3)c2)C1 (centres undefined),inactive: -19.5%
20,O=C(CCC1CCCN(C(=O)c2ccc3c(c2)OCCO3)C1)NCc1ccccc1F (centres undefined),inactive: 7.01%
21,COC(=O)Cc1c(C)c2ccc(O)c(CN3CCCC(C)C3)c2oc1=O (centres undefined),active: -54.1%
22,COCCNc1nc2cc(-c3ccccc3C)sc2c(=O)n1C,inconclusive: -45%
23,Cc1ccc(CC(=O)Nc2cccc(C#N)c2)cc1,inconclusive: -43.7%

row,Structure (SMILES),"max response, negative = inhibition"
1,O=C(Nc1ccccn1)C(NS(=O)(=O)c1cccc2nsnc12)c1ccccc1 (centres undefined),inconclusive: -36.8%
2,CC(C)CC(=O)Nc1ccnn1C1CCN(C(=O)c2ccccc2F)CC1,inconclusive: -39.4%
3,Cc1ccc(C)c(OCC(=O)O/N=C(\N)c2ccccn2)c1,inconclusive: -30.9%
4,CC(C)=N/N=C1/NC(=O)C(c2ccc(Cl)cc2)S1 (centres undefined),active: -95.8%
5,Cc1ccc(C)c(S(=O)(=O)N2CCCCC2CCNC(=O)C(=O)NCCc2ccco2)c1 (centres undefined),inactive: 8.42%
6,Cc1ccc(OCCn2cccn2)c(C)c1,inactive: -1.39%
7,CC(C)(C)C1=Nn2c(nnc2-c2ccccn2)SC1,inconclusive: -42%
8,CC/C(=C\C1CCCCC1)C(NP(=O)(c1ccccc1)c1ccccc1)c1ccccc1 (centres undefined),inconclusive: -44.5%
9,COC(=O)C1=C(C)N=C2SC(C)C(=O)N2C1c1ccc(C(=O)OC)cc1 (centres undefined),inconclusive: -31.6%
10,CSc1oc(-c2ccc(F)cc2)nc1S(=O)(=O)c1ccccc1,inconclusive: -35.6%
11,COc1ccc(-c2nnc3ccc(SCC(=O)NCc4ccco4)nn23)cc1OC,inconclusive: -31.9%
12,CN(C1CCCC1)C1CCN(C(=O)CNC(=O)/C=C/c2cccc(C(F)(F)F)c2)CC1,inconclusive: -31.6%
13,COc1ccccc1NC(=O)NC1(C(=O)N2CCC(O)CC2)CCCCC1,inactive: 9.62%
14,O=C(O)c1ccc(-c2cccc(Cl)c2)o1,inconclusive: -44.5%
15,O=C(N/N=C/c1cc([N+](=O)[O-])ccc1O)C1CC1,active: -86.2%
16,C#CCOCCOCCOCCNc1nc(N2CCN(C(=O)CCCCCCCCCCNC(=O)Cn3cc(C[C@@H](C)O)nn3)CC2)nc(N2CCN(C(=O)CCCCCCCCCCNC(=O)[C@H](CO)n3cc(CCCSC)nn3)CC2)n1,inactive: 21.6%
17,CN(C)c1ccc(C=c2c3cc(O)ccc3n3c2cc(-c2ccccc2)[n+]3C)cc1,inconclusive: -39.1%
18,COc1cc(C2CC(=O)NC3=C2C(=O)CC(C)(C)C3)ccc1O (centres undefined),inconclusive: -30.4%
19,CCOc1cc(/C=N/NC(=S)Nc2ccccc2C(F)(F)F)ccc1OCC(=O)N1CCOCC1,inactive: 24.9%
20,O=C(CN1C(=O)c2ccccc2S1(=O)=O)c1ccc(OC(F)F)cc1,inconclusive: -30.4%
21,CCCCn1nnnc1C(c1ccccc1)N1CCN(C/C=C/c2ccccc2)CC1 (centres undefined),active: -71.2%
22,O=c1[nH]c2ccc(N=Cc3c(O)ccc4cc(Br)ccc34)cc2[nH]1,inconclusive: -47.3%
23,CCn1c(-c2cc(-c3ccc(OC(C)C)cc3)nc3ccccc23)n[nH]c1=S,inconclusive: -38.7%

row,Structure (SMILES),"max response, negative = inhibition"
1,CC(C)CCC(CCN1CCCC1)c1ccc2c(c1)OCO2 (centres undefined),inconclusive: -42.8%
2,C[C@]12c3[nH]c4ccc(Cl)cc4c3CCN1C(=O)[C@@H](CC(=O)NCc1ccco1)C[C@@H]2C(=O)N1CCCCC1,inconclusive: -43.2%
3,COc1ccc(N2CCN(CCNS(=O)(=O)c3ccc(C)cc3)CC2)cc1,inconclusive: -38.2%
4,Cc1ccccc1S(=O)(=O)Cc1ccc(C(=O)NCCN2CCN(Cc3ccccc3)CC2)o1,active: -51.3%
5,CCOC(=O)c1sc(NC(=O)c2sccc2C)cc1C,inactive: 30.3%
6,Cc1cc(C)n(C(N)=NC(=O)c2ccc([N+](=O)[O-])cc2)n1,inconclusive: -33.6%
7,CC(C)Oc1ccc(S(=O)(=O)N2CCCCC2)cc1NC(=O)C1CCC1,inactive: -4.24%
8,CC(C)COc1nc2ccccc2nc1N1CCN(C)CC1,inconclusive: -41.3%
9,O=S(=O)(N1CCOCC1)n1nnc2ccccc21,inconclusive: -31.6%
10,Cc1ccc(-c2cc(C(=O)N/N=C/c3ccco3)[nH]n2)cc1,inconclusive: -46.4%
11,N#CCC1(O)C(=O)N(Cc2ccccc2)c2ccccc21 (centres undefined),inactive: 6.29%
12,CC1(C)CC(n2c(NCCO)nc3c(c2=O)C2(CCCC2)Cc2ccccc2-3)CCO1 (centres undefined),inactive: -6.38%
13,O=C(Nc1ccccn1)c1ccccc1,inactive: 13.5%
14,COc1cccc(C(=O)NNC(=O)CCN2CCN(c3ccccc3)CC2)c1,inconclusive: -43.2%
15,CCOc1ccc(NC(=O)CSc2nccn2C)cc1,inactive: 5.54%
16,CCc1cccc2c(C(=O)COC(=O)[C@@H]3CC(O)CN3S(=O)(=O)c3ccccc3[N+](=O)[O-])c[nH]c12 (some centres undefined),inactive: -3%
17,Cc1ccc(NC(=O)CNC(C)c2ccccc2)cc1 (centres undefined),inconclusive: -35.2%
18,COc1ccc(NC(=S)Nc2cccc([N+](=O)[O-])c2)cc1,inconclusive: -49.8%
19,COc1ccc(N(C2=NCCCS2)S(=O)(=O)c2ccc(C(C)(C)C)cc2)cc1,inconclusive: -31.6%
20,Cc1cc(C)c(OCCCCN2CCC(C)CC2)c(Br)c1,inconclusive: -40.6%
21,CCOC(=O)C1CCN(C(=O)CN2C(=O)COc3ccc(C(C)(C)C)cc32)CC1,inactive: -8.02%
22,CCC(C(=O)NC1CCCC1)N(Cc1ccc2c(c1)OCO2)C(=O)c1snc(C(N)=O)c1N (centres undefined),inconclusive: -41.9%
23,O=C(c1ccco1)N1CCN(C(c2ccc(F)cc2)c2nnnn2Cc2cccs2)CC1 (centres undefined),inconclusive: -34.3%

row,Structure (SMILES),"max response, negative = inhibition"
1,N#Cc1nc(Cc2cccc3ccccc23)oc1NCCCn1ccnc1,inconclusive: -43.8%
2,O=C(O)c1ccc(S(=O)(=O)/N=C2\C=C(Nc3ccccc3F)C(=O)c3ccccc32)cc1,active: -107%
4,O=[N+]([O-])c1ccc(OCCN2CCCCCC2)cc1,inconclusive: -49.9%
5,Cc1ccc(-n2nnnc2-c2cnc(-c3cccnc3)nc2C(F)(F)F)cc1,inactive: 5.46%
6,CCN(C(=O)CN1CCN(C)CC1)c1cccc2ccccc12,inconclusive: -42%
7,COc1ccc(CCN(C)CC(O)c2ccccc2)cc1OC (centres undefined),inconclusive: -41.4%
8,CCN(CC)CCOc1ncnc2c1oc1ccccc12,inconclusive: -35.2%
9,CCN(c1ccc(OC)cc1)S(=O)(=O)c1ccc2c(c1)CCN2C(=O)CCC(=O)O,inconclusive: -49%
10,Cc1ccc(F)cc1NC(=O)c1c(-c2ccccc2)noc1C,active: -50%
11,O=C(NCCc1cccc(Cl)c1)c1ccc(OC2CCN(Cc3ccccn3)CC2)cc1,active: -58.7%
12,CCC(C)(C)c1ccc(Oc2ccc(N)cc2)cc1,inactive: 14.6%
13,CCN(CCNC(=O)C1CCN(S(=O)(=O)c2cccc3nsnc23)CC1)c1ccccc1,inconclusive: -39.4%
14,O=C(C[C@H]1C[C@H](C(=O)N2CCOCC2)[C@@]2(CCC3CCCC3)c3[nH]c4ccc(Cl)cc4c3CCN2C1=O)NCc1ccco1,inconclusive: -34.9%
15,CNCc1c(OCc2ccccc2F)ccc2ccccc12,inconclusive: -36.8%
16,Cc1cccc(Nc2nc(C)cc(C)n2)c1,inactive: -23.1%
17,Cc1ccc(C)c(NC(=S)N2CCC(NC(=O)C3CCCCC3)CC2)c1,inactive: -3.15%
18,CCOc1ccc(Br)cc1C1=NN(C(C)=O)C(c2ccc([N+](=O)[O-])s2)O1 (centres undefined),inconclusive: -33.4%
19,CC(NC(=O)/C=C/c1ccccc1[N+](=O)[O-])C1CC2CCC1C2 (centres undefined),inconclusive: -35.2%
20,O=C(NCc1ccccn1)c1ccc(-c2ccccc2)cc1,inactive: 6.99%

# Part of the list above, with tabs:
row	Structure (SMILES)	max response, negative = inhibition
7	COc1ccc(CCN(C)CC(O)c2ccccc2)cc1OC (centres undefined)	inconclusive: -41.4%
8	CCN(CC)CCOc1ncnc2c1oc1ccccc12	inconclusive: -35.2%
10	Cc1ccc(F)cc1NC(=O)c1c(-c2ccccc2)noc1C	active: -50%
17	Cc1ccc(C)c(NC(=S)N2CCC(NC(=O)C3CCCCC3)CC2)c1	inactive: -3.15%
19	CC(NC(=O)/C=C/c1ccccc1[N+](=O)[O-])C1CC2CCC1C2 (centres undefined)	inconclusive: -35.2%
20	O=C(NCc1ccccn1)c1ccc(-c2ccccc2)cc1	inactive: 6.99%

# From PubChem BioAssay AID652054 (National Center for Advancing Translational Sciences (NCATS), 2013)
